These are yes or no findings as the source states them, for the method shown. In cells and extracts the contact can be indirect. A result given as binding can be weak or reduced; the word gives no strength.

Chains of the proteins cited; added tags and fusions are not shown. Lines headed by an entry give the natural chain unless they say otherwise; changes in a name come on top.
UniProt O95831: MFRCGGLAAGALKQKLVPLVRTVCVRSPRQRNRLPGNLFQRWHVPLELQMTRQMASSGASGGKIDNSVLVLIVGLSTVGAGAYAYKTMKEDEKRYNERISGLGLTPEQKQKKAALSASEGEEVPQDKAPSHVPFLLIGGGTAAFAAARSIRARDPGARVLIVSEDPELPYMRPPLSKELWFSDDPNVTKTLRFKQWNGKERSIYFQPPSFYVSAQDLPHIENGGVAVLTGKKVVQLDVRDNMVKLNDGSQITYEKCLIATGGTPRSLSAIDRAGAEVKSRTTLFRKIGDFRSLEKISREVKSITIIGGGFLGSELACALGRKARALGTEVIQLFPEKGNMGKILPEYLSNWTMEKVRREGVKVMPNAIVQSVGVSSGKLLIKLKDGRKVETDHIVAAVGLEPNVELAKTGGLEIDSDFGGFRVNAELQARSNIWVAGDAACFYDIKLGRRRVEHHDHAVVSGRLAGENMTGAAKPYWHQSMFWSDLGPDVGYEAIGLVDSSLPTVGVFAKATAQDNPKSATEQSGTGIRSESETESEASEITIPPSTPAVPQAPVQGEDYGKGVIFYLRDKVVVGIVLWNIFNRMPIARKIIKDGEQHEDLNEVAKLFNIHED

For assay [1], the target named is T1, TIM23, endogenous human (human (endogenous in Flp-In T-REx-293 and HeLa)) (UniProt O14925).
T1 sequence: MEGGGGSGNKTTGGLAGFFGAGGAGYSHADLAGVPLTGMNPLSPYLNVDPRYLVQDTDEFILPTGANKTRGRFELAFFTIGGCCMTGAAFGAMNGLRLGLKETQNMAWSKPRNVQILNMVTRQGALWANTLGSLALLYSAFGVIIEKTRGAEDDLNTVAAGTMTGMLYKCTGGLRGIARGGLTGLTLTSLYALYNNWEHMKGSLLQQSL
The experiment in a line: co-IP; HeLa lysates, with or without CHX (10 μg/mL), immunoprecipitated with anti-TIM23 monoclonal antibody or control IgG (anti-GFP), western blot. (In general: Immunoblotting shows a protein as a band on a membrane.)

Assay [2] has as its target T1, TIM23, endogenous human (human (endogenous in Flp-In T-REx-293 and HeLa)). The experiment in a line: proximity ligation; HeLa cells, antibody pairs (AIFM1 polyclonal, TIM23 monoclonal), with or without CHX.

Consider “AIFM1, endogenous human (from UniProt O95831)”, for which the binding result in assay [1] and in assay [2] was “binds” throughout.

(Values after article PMC13226697, “Stress-induced OMA1-mediated cleavage of AIFM1 suppresses cell growth by controlling mitochondrial OXPHOS activity” (The EMBO Journal, 2026).)
